Measured values published in publication doi:10.1101/2020.02.25.965475.
The comparison behind a weaker result is the experiment's own reference, which may not be listed here. Protein sequences can lack the tags named with them.

Biological target: T1, FLAG-TEN (Cucumis sativus (cucumber)) (UniProt A0A0A0KSL1)
T1 sequence (looked up): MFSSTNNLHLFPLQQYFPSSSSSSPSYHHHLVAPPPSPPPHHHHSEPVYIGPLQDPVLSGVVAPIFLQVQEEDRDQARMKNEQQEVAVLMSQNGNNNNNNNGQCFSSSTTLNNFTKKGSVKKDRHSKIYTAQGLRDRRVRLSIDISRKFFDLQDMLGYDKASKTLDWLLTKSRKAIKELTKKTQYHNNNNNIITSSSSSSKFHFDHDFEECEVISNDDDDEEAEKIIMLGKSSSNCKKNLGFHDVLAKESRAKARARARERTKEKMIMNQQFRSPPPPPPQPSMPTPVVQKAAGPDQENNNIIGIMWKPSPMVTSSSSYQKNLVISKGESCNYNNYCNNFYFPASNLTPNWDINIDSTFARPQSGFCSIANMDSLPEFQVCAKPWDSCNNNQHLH
Assay: EMSA
Settings: residues 1-395

“AAATTAAGAATATTGTGGTCCCACTCAAATATAAAGTATTAATT (double strand) [GGTCCC probe (GTGGTCCCAC)]”: binds more weakly.
